Source: patent US20050069951A1
Results are given in words; binding and its absence hold for the method and conditions named. For some of these results: Binding calls can cover weak binding; strength is not graded here.

Experiments:
[1] = molecular target: H. influenzae tyrosine tRNA synthetase (H. influenzae); experiment: ELSA, immobilized TyrRS
[2] = molecular target: H. influenzae tyrosine tRNA synthetase (H. influenzae); experiment: ELSA, immobilized targets (FIG. 13a)
[3] = molecular target: H. influenzae tyrosine tRNA synthetase (H. influenzae); experiment: ELSA on immobilized TyrRS with a tyrosyladenylate inhibitor
[4] = molecular target: H. influenzae tyrosine tRNA synthetase (H. influenzae); experiment: ELSA: biotinylated peptide, immobilized target

binding [1] | binding [2] | binding [3] | binding [4] | Binder
no binding | no binding | – | – | VCAIWPDLDGC (biotinylated, position not stated) [biotinylated ProRS surrogate ligand peptide]
– | – | binds | binds | LYSWPDEQYERP (biotinylated, position not stated) [biotinylated peptide TyrRS1]
